# Measured values as given in PubChem BioAssay AID504327 (National Center for Advancing Translational Sciences (NCATS), 2011).
# Amino acid sequences for entries named in this document (tags omitted).
# UniProt Q92830, whole entry, looked up: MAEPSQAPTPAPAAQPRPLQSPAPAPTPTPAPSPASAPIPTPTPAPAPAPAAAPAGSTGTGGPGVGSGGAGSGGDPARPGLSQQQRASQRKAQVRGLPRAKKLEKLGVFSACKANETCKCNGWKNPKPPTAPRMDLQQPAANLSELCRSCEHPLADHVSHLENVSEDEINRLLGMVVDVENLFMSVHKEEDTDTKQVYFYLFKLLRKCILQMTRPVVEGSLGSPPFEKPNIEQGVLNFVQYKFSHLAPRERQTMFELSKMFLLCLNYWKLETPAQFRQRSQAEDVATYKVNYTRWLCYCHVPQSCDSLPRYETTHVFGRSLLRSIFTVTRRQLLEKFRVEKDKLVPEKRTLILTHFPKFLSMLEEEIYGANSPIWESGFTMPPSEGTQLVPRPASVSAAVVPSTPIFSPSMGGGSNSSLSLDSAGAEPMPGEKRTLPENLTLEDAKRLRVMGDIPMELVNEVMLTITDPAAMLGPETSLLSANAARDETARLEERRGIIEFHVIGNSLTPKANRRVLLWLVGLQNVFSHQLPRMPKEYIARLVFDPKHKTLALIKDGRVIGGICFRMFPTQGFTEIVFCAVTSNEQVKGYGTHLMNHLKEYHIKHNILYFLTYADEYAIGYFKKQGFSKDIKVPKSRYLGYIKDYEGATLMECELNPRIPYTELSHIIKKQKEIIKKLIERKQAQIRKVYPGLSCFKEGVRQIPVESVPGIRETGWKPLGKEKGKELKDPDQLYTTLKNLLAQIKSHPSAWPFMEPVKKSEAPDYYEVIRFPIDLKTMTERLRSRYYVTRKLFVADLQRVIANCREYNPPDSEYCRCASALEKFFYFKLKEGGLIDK
# Where “and” joins values, the source holds several entries; their conditions need not be identical. Equal entries are not always repeated. Among all 390,000 compounds or so, about 820 (0.21%) were called active. Inconclusive results, whose numbers are uncertain, are shown with a selection of clear calls. Calls follow the shape of the dose curve; as a rule, active = well fitted inhibition curve with a large enough effect; inconclusive = small, poorly fitted or top-dose-only effect, or another doubt; inactive = no such curve, though single readings can be large or run the other way. Potencies of inconclusive entries are doubtful fits and often do not repeat. Some structures have more than one record in an assay (separate samples or runs), and their calls can disagree.
# Target: Histone acetyltransferase KAT2A (Homo sapiens) (UniProt Q92830)
# Experiment: qHTS Assay for Inhibitors of GCN5L2
# Conditions: GCN5L2 HAT assay, ThioGlo1 CoA-SH fluorescence; series mostly up to 58.9 µM
# Outline: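 Enzyme at 20nM final was mixed with library compounds for 15 min at room temperature. Peptide H3(1-25) at 75uM, acetyl-CoA at 70uM and ThioGlo1 at 50uM were then added. Plates were read immediately and after 20 min (Ex340nm/Em540nm).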
# Potency is read from the fitted curve at half-maximal effect.
row,Compound,Potency
1,O=C(Cn1c(=O)oc2cc(S(=O)(=O)N3CCCC3)ccc21)Nc1cccc(C(F)(F)F)c1,"inconclusive: 8.91 µM [inhibitor, partial curve]"
2,Cc1nc2c(-c3ccc(F)cc3)c(C)nn2c(C)c1CCC(=O)N1CCC2(CC1)OCCO2,"inconclusive: 22.4 µM [inhibitor, single point]"
3,CCC1(C)CC(C(N)=S)CCO1 (stereo not given),"inconclusive: 20 µM [inhibitor, partial curve]"
4,CC(C)c1ccc(N2C(=O)NC(=O)/C(=C/C=C/c3ccco3)C2=O)cc1,"inconclusive: 22.4 µM [inhibitor, single point]"
5,Cc1cc(/C=C2\C(=O)NC(=O)N(Cc3ccccc3)C2=O)c(C)n1C1CC1,inactive
6,CCC(C(N)=O)N1CCCC1=O (stereo not given),"inconclusive: 35.5 µM [inhibitor, single point]"
7,C[C@@H]1O[C@@H](O[C@H]2C[C@@H](O)[C@@]3(CO)[C@H]4[C@H](O)C[C@]5(C)[C@@H](C6=CC(=O)OC6)CC[C@]5(O)[C@H]4CC[C@@]3(O)C2)[C@@H](O)[C@H](O)[C@H]1O,"inconclusive: 31.6 µM [inhibitor, single point]"
8,C#C[C@@]1(O)CC[C@@H]2[C@@H]3CCC4=CC(=O)CC[C@@]4(C)[C@H]3CC[C@]21C,"inconclusive: 10 µM [inhibitor, single point]"
9,CCCCCCCCn1sccc1=O,"inconclusive: 15.8 µM [inhibitor, partial curve]"
10,O=C(N/N=C1/CN2CCC1CC2)c1cc2ccccc2cc1O,"inconclusive: 0.794 µM [inhibitor, single point]"
11,CCCNC(=O)c1c(N)n(CC2CCCO2)c2nc3ccccc3nc12 (stereo not given),"inconclusive: 12.6 µM [inhibitor, partial curve, poor fit]"
12,COc1ccc(CN2C(=O)NC(=O)/C(=C/c3ccoc3)C2=O)cc1,"inconclusive: 39.8 µM [inhibitor, single point]"
13,O[C@@H]1CCCN2C[C@@H](O)[C@@H](O)C12 (stereo not given in full),inactive
14,Cc1cccc(-n2c(-c3ccccc3)nc3ccccc3c2=O)n1,"inconclusive: 39.8 µM [inhibitor, single point]"
15,Cc1ccccc1C(=O)NNC(=S)NC(=O)COc1ccccc1,"inconclusive: 25.1 µM [inhibitor, single point]"
16,Cc1ccccc1N1CCN(C2CCCN(C(=O)COc3ccccc3)C2)CC1 (stereo not given),"inconclusive: 12.6 µM [inhibitor, partial curve]"
17,FC(F)(F)c1ccc2c(c1)N(CCCN1CCN(CCCl)CC1)c1ccccc1S2,inactive
18,O=C(Nc1ccc(Br)cc1)c1cc(Br)cc(Br)c1O,"inconclusive: 28.2 µM [inhibitor, single point]"
19,CNC[C@H](O)c1ccc(OC(=O)C(C)(C)C)c(OC(=O)C(C)(C)C)c1,"inconclusive: 15.8 µM [inhibitor, single point]"
20,CN1C(=O)/C(=C/C=C/c2ccco2)C(=O)NC1=S,"inconclusive: 20 µM [inhibitor, single point]"
21,COC(=O)[C@@H]1[C@@H]2C[C@H]3c4[nH]c5cc(OC)ccc5c4CCN3C[C@@H]2C[C@H](OC(=O)/C=C\c2cc(OC)c(OC)c(OC)c2)[C@H]1OC,"inconclusive: 12.6 µM [inhibitor, single point]"
22,O=C1NC(=S)NC(=O)C1=Cc1ccc(Br)s1,"inconclusive: 39.8 µM [inhibitor, single point]"

row,Compound,Potency
1,COc1c(CC=C(C)C)c2c(c3oc(=O)c(-c4ccc(O)cc4)c(O)c13)C=CC(C)(C)O2,"inconclusive: 31.6 µM [inhibitor, single point]"
2,C/C(=C/CCC(C)[C@H]1CC[C@@]2(C)C3=C(CC[C@]12C)[C@@]1(C)CCC(=O)C(C)(C)[C@@H]1CC3)C(=O)O (stereo not given in full),"inconclusive: 10 µM [inhibitor, partial curve]"
3,Cc1ccc(NC(=O)N(C)C)cc1Cl,inactive
4,N[C@H](CCP(=O)(O)O)C(=O)O,inactive
5,CC[C@@]1(O)C(=O)OCc2c1cc1n(c2=O)Cc2cc3c(O)cccc3nc2-1,"inconclusive: 11.2 µM [inhibitor, partial curve] and inconclusive: 39.8 µM [inhibitor, single point]"
6,Cc1cc(-n2c(/C=C/c3cccs3)nc3ccccc3c2=O)ccc1Br,inactive
7,CN(C)c1nc(-c2ccccc2)[n+](C)s1,"inconclusive: 14.1 µM [inhibitor, partial curve]"
8,N/C(=N\[N+](=O)[O-])N1CCN(C(=O)Oc2ccccc2)CC1,"inconclusive: 3.55 µM [inhibitor, single point]"
9,O=C(O)CNC(=O)[C@@H](CS)Cc1ccccc1,active: 12.6 µM
10,C[C@H](CCC(=O)O)[C@H]1CC[C@H]2[C@@H]3CC[C@@H]4C[C@H](O)CC[C@]4(C)[C@H]3CC[C@]12C,active: 25.1 µM
11,CCN(CC)C(=O)N[C@@H]1C=C2c3cccc4[nH]cc(c34)C[C@H]2N(C)C1,"inconclusive: 31.6 µM [inhibitor, partial curve]"
12,Cc1cccc(OCCn2cccc2/C=C2/C(=O)NC(=O)N(Cc3ccco3)C2=O)c1,"inconclusive: 31.6 µM [inhibitor, single point]"
13,COC(=O)c1ccc(C(=O)OC)c(NC(=O)Oc2ccccc2)c1,"inconclusive: 39.8 µM [inhibitor, single point]"
14,O=[N+]([O-])c1ccccc1CNCCc1c[nH]c2ccccc12,inactive
15,CC(=O)[O][Sn]([c]1ccccc1)([c]1ccccc1)[c]1ccccc1,active: 4.47 µM
16,O=C1C=Cc2ccccc2C1=O,active: 28.2 µM
17,COc1cc2c(cc1OC)[C@@H]1C(=O)c3ccc(OC)c(CC=C(C)C)c3OC1CO2 (stereo not given in full),"inconclusive: 35.5 µM [inhibitor, partial curve]"
18,CCOC(=O)c1ncc2[nH]c3ccc(OCc4ccccc4)cc3c2c1COC,"inconclusive: 6.31 µM [inhibitor, partial curve]"
19,O=C1CC2OCC=C3CN4CCC56c7ccccc7N1C5[C@H]2[C@H]3C[C@H]46 (stereo not given in full) (tested in a mixture with another compound),inactive
20,CC(C)c1ccc(-n2c(O)c(/C=N/NC(=O)c3ccncc3)c(=O)[nH]c2=O)cc1,inactive
21,CC[n+]1c(-c2ccccc2)c2cc(N)ccc2c2ccc(N)cc21,"inconclusive: 12.6 µM [inhibitor, partial curve]"
22,O=C1NC(=O)N(Cc2ccco2)C(=O)/C1=C/C=C/c1ccco1,"inconclusive: 39.8 µM [inhibitor, single point]"

row,Compound,Potency
1,CC(=O)[C@@H]1CC[C@H]2[C@H]3CC[C@H]4C[C@@H](O)CC[C@]4(C)[C@@H]3C(=O)C[C@@]12C,inactive
2,Clc1ccc(C(Cn2ccnc2)OCc2csc3c(Cl)cccc23)c(Cl)c1 (stereo not given),"inconclusive: 35.5 µM [inhibitor, partial curve]"
3,CN(CCc1cnn(C)c1)C(=O)C1CCC(=O)N(CC2CCCCC2)C1 (stereo not given),"inconclusive: 0.891 µM [inhibitor, full curve, poor fit]"
4,COc1ccc(CCNCc2ccc(Br)cc2)cc1OC,inactive
5,CN1CCCC2(CCN(C(=O)Oc3ccccc3)CC2)C1,inactive
6,O=C(Cc1ccc(N(CCCl)CCCl)cc1)NC(Cc1ccc(Cl)cc1)C(=O)O (stereo not given),inactive
7,O=C(Cc1ccc(Cl)cc1)NCCN1CCN(C(=O)Cc2ccc(Cl)cc2)CC1,"inconclusive: 39.8 µM [inhibitor, single point]"
8,O=C1NC(=O)N(Cc2ccccc2)C(=O)/C1=C\c1ccco1,"inconclusive: 39.8 µM [inhibitor, single point]"
9,O=C(OC1Cc2c(O)cc(O)cc2OC1c1cc(O)c(O)c(O)c1)c1cc(O)c(O)c(O)c1 (stereo not given),"inconclusive: 31.6 µM [inhibitor, single point]"
10,CC(N)(COP(=O)(O)Oc1ccccc1)C(=O)O (stereo not given),inactive
11,O=C1NC(=O)N(c2ccccc2)C(=O)/C1=C/c1ccc2c(c1)Cc1ccccc1-2,inactive
12,O=C(O)c1ccccc1-c1ccc(C=C2C(=O)N(c3ccccc3)C(=S)N(c3ccccc3)C2=O)o1,"inconclusive: 11.2 µM [inhibitor, partial curve]"
13,COCCNC(=O)Cn1cc(/C=C2\C(=O)NC(=O)N(c3cccc(C)c3C)C2=O)c2ccccc21,inactive
14,CN1C(=O)C(=Cc2ccccc2OCCOc2ccc([N+](=O)[O-])cc2)C(=O)N(C)C1=O,"inconclusive: 31.6 µM [inhibitor, single point]"
15,NCC(CP(=O)(O)O)c1ccc(Cl)cc1 (stereo not given),"inconclusive: 39.8 µM [inhibitor, single point]"
16,COc1ccccc1Oc1c(C)oc2cc(OC(=O)N(C)C)ccc2c1=O,"inconclusive: 6.31 µM [inhibitor, partial curve]"
17,O=c1c2ccccc2nc(/C=C/c2ccc(O)cc2)n1-c1cccc(O)c1,"inconclusive: 28.2 µM [inhibitor, single point]"
18,O=C(N/N=C/c1c(O)n(Cc2ccc(F)cc2)c(=O)[nH]c1=O)c1ccccc1,"inconclusive: 39.8 µM [inhibitor, partial curve, poor fit]"
19,COC1C(OC(=O)c2ccc(C)[nH]2)C(O)C(Oc2ccc3c(O)c(NC(=O)c4ccc(O)c(CC=C(C)C)c4)c(=O)oc3c2Cl)OC1(C)C (stereo not given),"inconclusive: 28.2 µM [inhibitor, partial curve]"
20,CCn1cc(C=C2C(=O)N(C)C(=O)N(C)C2=O)c2ccccc21,inactive
21,Cc1cc(OCC(=O)NC(Cc2ccc(Cl)cc2)C(=O)O)c2c3c(c(=O)oc2c1)CCC3 (stereo not given),"inconclusive: 31.6 µM [inhibitor, single point]"
